± gives the standard deviation of the averaged measurements. Most values lie at the floor of the assay. Slopes are relative: functional sequences can read slightly below zero.
test system: Saccharomyces cerevisiae PS128 hsf1 delta, HSF1(1-493) fusion; test: growth estimate (transactivation domain function in HSF1 fusion, heat-shock survival) (a.u. (slope of normalised read count over time)); higher = stronger growth at 37°C, i.e. more transactivation activity; settings: library: random library
Protocol: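 Random 60-nt DNA library encoding peptides of up to 20 aa, fused to the C-terminus of yeast HSF1 residues 1-493 (C-terminal TAD deleted) and expressed from the native HSF1 promoter on a CEN plasmid in hsf1-deleted S. cerevisiae PS128. Cells were selected at 37°C on -trp 5-FOA plates for 0, 2, 4, 6 and 8 days and amplicons were sequenced. Growth estimate is the slope of a robust linear fit of total-sum-normalised read counts (normalised to the first time point) over time, using at least 2 replicates. Sequences are classed functional (TAD activity) above a threshold of -0.13, set from stop-codon control sequences.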

Substance | growth estimate
DPRSVDVWKELNDNMAVTDI | < -0.25
GGRHHHPTGETPSPPLIEVE | < -0.25
YGNRRRSVHEQCVREMVCMP | < -0.25
HQRSYSEVNRFSPFL | < -0.25
LSGVVLAGLRGRALF | < -0.25
FVAIGYGATTGQANPLTRVL | < -0.25
TAAKSRQGEIRKCDRLAILT | < -0.25
RFLARRHYTSIALGSLVPRP | < -0.25
LRG | -0.24 ± 0.013
AGPGISENDMSLAMAFCLVS | -0.217
YSLLPITYQIAQSWISDLHP | < -0.25
STSRFVDVVASNAIIRALGR | < -0.25
ISKAHRSWWLGTRGGVCRGQ | -0.229
ASAGTRIVGTPCVQLARTPL | < -0.25
RGTDVRGPSVVLWIRLNLRT | < -0.25
ILIFTRYF | < -0.25
GEHISQ | < -0.25
LGYQEFSGPILARNLEGK | < -0.25
AGHTKGEPGYRGEPFVTDRA | < -0.25
LQWELDANPRRTA | < -0.25
SNPT | < -0.25
IRGLTQQGTVDNLSMLLSIR | -0.237
FPIHTVLTVYRTLTGGGSIN | < -0.25
KQYISRLTAAGESIEARLVA | < -0.25
EIGTRTSRTFR | < -0.25
LSRDENCLQQWGDRSTATGR | < -0.25

Looked up above:
Under growth estimate, AGHTKGEPGYRGEPFVTDRA shows < -0.25
Under growth estimate, DPRSVDVWKELNDNMAVTDI shows < -0.25
Under growth estimate, GEHISQ shows < -0.25

Next part

Substance | growth estimate
DGVEEYSIPRGILPGYILAW | < -0.25
IKYSEI | < -0.25
SGTVHASVMNVTAGRVGHFI | < -0.25
REYRLVRCDLRTVCHTVNSA | < -0.25
LAC | < -0.25
RLPTVSTSW | < -0.25
GGLILPVRALSRAYCG | < -0.25
IGNRFS | < -0.25
TKPWDILMIPAN | < -0.25
VLIDRFLGHTYFRESRDFCL | 0.142
GSMQERVVARLDTLWLDW | < -0.25
HRQR | < -0.25
FVVRGVSFSGLPL | < -0.25
GGVWGSDLLA | < -0.25
PVSTQIAPFPGDMRSAVTEG | < -0.25
RLGRAEVQWLARR | < -0.25
RFMNR | < -0.25
CGARIRMYRSGPKEMRTGVI | < -0.25
GTMFYETPVETRPEQRLRGL | -0.151
TRDRLITRDATSGFARRLLC | < -0.25
QIEPALGLPVACKKSDES | < -0.25
GGLPGISFYNRHALWGITLP | < -0.25
PSFRPFGSDTRRRVIYLKAQ | < -0.25
SPSRRCRDNSWSHQELELCR | < -0.25
ASQWSLAYGVRGHPGALRTG | < -0.25
IVHADIIAGKACTTLYLYTK | < -0.25

Substance | growth estimate
FESREQGIIYGPLLYTSWV | < -0.25
ERVEYVRHGSHYGGSQRPRP | < -0.25
NLVPAKEADLAP | < -0.25
FLKILRQYCAHT | < -0.25
GRHVGVPLFYHVYWALHQ | < -0.25
ARFRLGS | < -0.25
KYSKGGVG | < -0.25
PRL | < -0.25
ASSAIFEPGRLLRLARSTVC | < -0.25
APFIN | < -0.25
SKEGWGRSKLRCTAFRARPR | < -0.25
TLSRRCPVIL | < -0.25
ENCPGSRLE | < -0.25
DAQCALLCWYRNRFRDCRRY | < -0.25
PVTLNERGYLRALLVISVPE | < -0.25
GTGYTLRLDQRGTVKEDRPR | < -0.25
VLRFRFTLEA | < -0.25
VTVFAGTYAWVSRTFSRSGQ | -0.222
DNVNYLALSRFQSPCLTAS | < -0.25
GCDTYLWGSQR | < -0.25
GDLGLGWANFGTQVIESIWR | -0.245
IEIFATIR | -0.241
AYPHLDNAFVVDRAS | < -0.25
VGDQNSKSN | < -0.25
HCCTPGGPPTNDSNFEGRAH | < -0.25
AVMATGATSVW | < -0.25
